PubChem BioAssay AID1224830 | NIAID, 2016
Test: 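Genes whose knock-down alters the TNF-alpha reporter response to LPS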 (primary screen). Cell system: human THP-1 monocytic leukaemia cells, TNF dual-luciferase reporter clone, PMA-differentiated to macrophage-like cells. Reagents: siRNA pool against human genes, 50 nM. Time to read-out: LPS for 4 h, given about 3 days after siRNA transfection. Conditions: bacterial LPS (TLR4 ligand), 10 ng/ml. Detection: 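Ratio of firefly to renilla light, scaled to the plate median and expressed as a robust z-score per replicate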. Scale: TNF reporter robust z-score: higher = stronger TNF reporter response to LPS. Rule for the call: 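Each well counts as active if its z-score is over 2.8 or under -1.5; controls are left without a call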.
The whole screen tested about 18,000 reagents; shown is an unselected part. Of all reagents, about 2,900 (16%) were called active. 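Calls are made per well; low scores hint the gene aids the LPS response, high scores that it dampens it.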 Unmarked entries are inactive. The numbers tell different reagents against one gene apart. Repeated entries: four replicate wells of each siRNA pool. No sequences are given here.

| gene knocked down | reagent | TNF reporter robust z-score |
| --- | --- | --- |
| RNF32 (ring finger protein 32) | 1 | -2.24 (active) |
| RNF32 (ring finger protein 32) | 1 | -0.67 |
| RNF32 (ring finger protein 32) | 1 | 1.86 |
| RNF32 (ring finger protein 32) | 1 | 0.6 |
| PEX6 (peroxisomal biogenesis factor 6) | 1 | 0.26 |
| PEX6 (peroxisomal biogenesis factor 6) | 1 | -0.66 |
| PEX6 (peroxisomal biogenesis factor 6) | 1 | 0 |
| PEX6 (peroxisomal biogenesis factor 6) | 1 | 0.13 |
| KPNA1 (karyopherin subunit alpha 1) | 1 | 0.43 |
| KPNA1 (karyopherin subunit alpha 1) | 1 | 1.32 |
| KPNA1 (karyopherin subunit alpha 1) | 1 | 0.1 |
| KPNA1 (karyopherin subunit alpha 1) | 1 | 2 |
| PCK2 (phosphoenolpyruvate carboxykinase 2, mitochondrial) | 1 | -0.39 |
| PCK2 (phosphoenolpyruvate carboxykinase 2, mitochondrial) | 1 | 0.1 |
| PCK2 (phosphoenolpyruvate carboxykinase 2, mitochondrial) | 1 | -0.23 |
| PCK2 (phosphoenolpyruvate carboxykinase 2, mitochondrial) | 1 | 1.35 |
| CHRNB2 (cholinergic receptor nicotinic beta 2 subunit) | 1 | -0.19 |
| CHRNB2 (cholinergic receptor nicotinic beta 2 subunit) | 1 | 0.67 |
| CHRNB2 (cholinergic receptor nicotinic beta 2 subunit) | 1 | 1.95 |
| CHRNB2 (cholinergic receptor nicotinic beta 2 subunit) | 1 | 2.84 (active) |
| TMEM204 (transmembrane protein 204) | 1 | 1.38 |
| TMEM204 (transmembrane protein 204) | 1 | 1.15 |
| TMEM204 (transmembrane protein 204) | 1 | 1.74 |
| TMEM204 (transmembrane protein 204) | 1 | 1.21 |
| RPN1 (ribophorin I) | 1 | 0.03 |
| RPN1 (ribophorin I) | 1 | 0.97 |
| RPN1 (ribophorin I) | 1 | -0.33 |
| RPN1 (ribophorin I) | 1 | 0.27 |
| ZNF580 (zinc finger protein 580) | 1 | 0.95 |
| ZNF580 (zinc finger protein 580) | 1 | 0.59 |
| ZNF580 (zinc finger protein 580) | 1 | 0.03 |
| ZNF580 (zinc finger protein 580) | 1 | 1.23 |
| CUBN (cubilin) | 1 | 1.06 |
| CUBN (cubilin) | 1 | -0.23 |
| CUBN (cubilin) | 1 | -0.06 |
| CUBN (cubilin) | 1 | 1.49 |
| TRAF6 (TNF receptor associated factor 6) | 1 | -0.68 |
| TRAF6 (TNF receptor associated factor 6) | 1 | 0.62 |
| TRAF6 (TNF receptor associated factor 6) | 1 | -0.52 |
| TRAF6 (TNF receptor associated factor 6) | 1 | 0.65 |
| DNPH1 (2'-deoxynucleoside 5'-phosphate N-hydrolase 1) | 1 | 0.17 |
| DNPH1 (2'-deoxynucleoside 5'-phosphate N-hydrolase 1) | 1 | -0.27 |
| DNPH1 (2'-deoxynucleoside 5'-phosphate N-hydrolase 1) | 1 | 0.51 |
| DNPH1 (2'-deoxynucleoside 5'-phosphate N-hydrolase 1) | 1 | 0.2 |
| IGSF1 (immunoglobulin superfamily member 1) | 1 | -0.38 |
| IGSF1 (immunoglobulin superfamily member 1) | 1 | 0.39 |
| IGSF1 (immunoglobulin superfamily member 1) | 1 | 0.25 |
| IGSF1 (immunoglobulin superfamily member 1) | 1 | 0.78 |
| CTR9 (CTR9 component of Paf1/RNA polymerase II complex) | 1 | -0.71 |
| CTR9 (CTR9 component of Paf1/RNA polymerase II complex) | 1 | -1.01 |
| CTR9 (CTR9 component of Paf1/RNA polymerase II complex) | 1 | -0.28 |
| CTR9 (CTR9 component of Paf1/RNA polymerase II complex) | 1 | -0.6 |
| MYCN (MYCN proto-oncogene, bHLH transcription factor) | 1 | 0.17 |
| MYCN (MYCN proto-oncogene, bHLH transcription factor) | 1 | 0 |
| MYCN (MYCN proto-oncogene, bHLH transcription factor) | 1 | -0.23 |
| MYCN (MYCN proto-oncogene, bHLH transcription factor) | 1 | -0.21 |
| AGAP4 (ArfGAP with GTPase domain, ankyrin repeat and PH domain 4) | 1 | -0.06 |
| AGAP4 (ArfGAP with GTPase domain, ankyrin repeat and PH domain 4) | 1 | -0.16 |
| AGAP4 (ArfGAP with GTPase domain, ankyrin repeat and PH domain 4) | 1 | -0.38 |
| AGAP4 (ArfGAP with GTPase domain, ankyrin repeat and PH domain 4) | 1 | 0.47 |
| AGAP4 (ArfGAP with GTPase domain, ankyrin repeat and PH domain 4) | 2 | 0.19 |
| AGAP4 (ArfGAP with GTPase domain, ankyrin repeat and PH domain 4) | 2 | -0.37 |
| AGAP4 (ArfGAP with GTPase domain, ankyrin repeat and PH domain 4) | 2 | -1.07 |
| AGAP4 (ArfGAP with GTPase domain, ankyrin repeat and PH domain 4) | 2 | 0.87 |
| ARMCX3 (armadillo repeat containing X-linked 3) | 1 | -0.61 |
| ARMCX3 (armadillo repeat containing X-linked 3) | 1 | -1.53 (active) |
| ARMCX3 (armadillo repeat containing X-linked 3) | 1 | -0.66 |
| ARMCX3 (armadillo repeat containing X-linked 3) | 1 | -0.1 |
| AURKA (aurora kinase A) | 1 | 0.44 |
| AURKA (aurora kinase A) | 1 | -0.25 |
| AURKA (aurora kinase A) | 1 | 0.08 |
| AURKA (aurora kinase A) | 1 | 2.77 |
| MLX (MAX dimerization protein MLX) | 1 | -0.39 |
| MLX (MAX dimerization protein MLX) | 1 | -0.07 |
| MLX (MAX dimerization protein MLX) | 1 | -0.19 |
| MLX (MAX dimerization protein MLX) | 1 | 0 |
| RHOT2 (ras homolog family member T2) | 1 | 0.96 |
| RHOT2 (ras homolog family member T2) | 1 | 1.89 |
| RHOT2 (ras homolog family member T2) | 1 | 1.71 |
| RHOT2 (ras homolog family member T2) | 1 | 2 |
| NCALD (neurocalcin delta) | 1 | -0.61 |
| NCALD (neurocalcin delta) | 1 | -0.32 |
| NCALD (neurocalcin delta) | 1 | -0.5 |
| NCALD (neurocalcin delta) | 1 | -0.31 |
| AKR1B15 (aldo-keto reductase family 1 member B15) | 1 | -0.72 |
| AKR1B15 (aldo-keto reductase family 1 member B15) | 1 | -1.47 |
| AKR1B15 (aldo-keto reductase family 1 member B15) | 1 | -0.88 |
| AKR1B15 (aldo-keto reductase family 1 member B15) | 1 | -0.66 |
| DNAI7 (dynein axonemal intermediate chain 7) | 1 | -1.19 |
| DNAI7 (dynein axonemal intermediate chain 7) | 1 | -1.82 (active) |
| DNAI7 (dynein axonemal intermediate chain 7) | 1 | -1.66 (active) |
| DNAI7 (dynein axonemal intermediate chain 7) | 1 | -1.08 |
| RTL8A (retrotransposon Gag like 8A) | 1 | -0.77 |
| RTL8A (retrotransposon Gag like 8A) | 1 | -1.3 |
| RTL8A (retrotransposon Gag like 8A) | 1 | -1.36 |
| RTL8A (retrotransposon Gag like 8A) | 1 | -0.6 |
| RRS1 (regulator of ribosome synthesis 1) | 1 | 0.93 |
| RRS1 (regulator of ribosome synthesis 1) | 1 | 0.2 |
| RRS1 (regulator of ribosome synthesis 1) | 1 | 0.46 |
| RRS1 (regulator of ribosome synthesis 1) | 1 | 1.63 |
| SLC6A3 | 1 | -0.94 |
| SLC6A3 | 1 | -1.22 |
| SLC6A3 | 1 | -1.13 |
| SLC6A3 | 1 | 2.39 |
| PCDH1 (protocadherin 1) | 1 | -0.76 |
| PCDH1 (protocadherin 1) | 1 | -0.66 |
| PCDH1 (protocadherin 1) | 1 | -0.86 |
| PCDH1 (protocadherin 1) | 1 | -0.7 |
| SAMD1 (sterile alpha motif domain containing 1) | 1 | 4.68 (active) |
| SAMD1 (sterile alpha motif domain containing 1) | 1 | 6.68 (active) |
| SAMD1 (sterile alpha motif domain containing 1) | 1 | 4.2 (active) |
| SAMD1 (sterile alpha motif domain containing 1) | 1 | 4.14 (active) |
